Binding data for 7 molecules are collected here from article PMC10765824.

Amino acid sequences for entries named in this document (tags omitted).
UniProt O60260: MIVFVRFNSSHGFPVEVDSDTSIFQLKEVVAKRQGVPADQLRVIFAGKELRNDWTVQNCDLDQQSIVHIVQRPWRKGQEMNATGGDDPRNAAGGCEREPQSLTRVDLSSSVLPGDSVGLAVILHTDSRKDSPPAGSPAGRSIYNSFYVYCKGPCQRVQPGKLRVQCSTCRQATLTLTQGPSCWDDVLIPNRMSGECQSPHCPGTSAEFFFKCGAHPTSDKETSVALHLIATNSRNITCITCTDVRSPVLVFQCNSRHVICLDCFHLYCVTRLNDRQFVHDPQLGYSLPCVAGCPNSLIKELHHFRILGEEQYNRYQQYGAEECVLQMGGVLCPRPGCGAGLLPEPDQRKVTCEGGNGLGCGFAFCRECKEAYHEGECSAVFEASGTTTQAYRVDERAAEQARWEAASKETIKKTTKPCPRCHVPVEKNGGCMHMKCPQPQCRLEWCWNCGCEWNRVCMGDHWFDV
UniProt P09874: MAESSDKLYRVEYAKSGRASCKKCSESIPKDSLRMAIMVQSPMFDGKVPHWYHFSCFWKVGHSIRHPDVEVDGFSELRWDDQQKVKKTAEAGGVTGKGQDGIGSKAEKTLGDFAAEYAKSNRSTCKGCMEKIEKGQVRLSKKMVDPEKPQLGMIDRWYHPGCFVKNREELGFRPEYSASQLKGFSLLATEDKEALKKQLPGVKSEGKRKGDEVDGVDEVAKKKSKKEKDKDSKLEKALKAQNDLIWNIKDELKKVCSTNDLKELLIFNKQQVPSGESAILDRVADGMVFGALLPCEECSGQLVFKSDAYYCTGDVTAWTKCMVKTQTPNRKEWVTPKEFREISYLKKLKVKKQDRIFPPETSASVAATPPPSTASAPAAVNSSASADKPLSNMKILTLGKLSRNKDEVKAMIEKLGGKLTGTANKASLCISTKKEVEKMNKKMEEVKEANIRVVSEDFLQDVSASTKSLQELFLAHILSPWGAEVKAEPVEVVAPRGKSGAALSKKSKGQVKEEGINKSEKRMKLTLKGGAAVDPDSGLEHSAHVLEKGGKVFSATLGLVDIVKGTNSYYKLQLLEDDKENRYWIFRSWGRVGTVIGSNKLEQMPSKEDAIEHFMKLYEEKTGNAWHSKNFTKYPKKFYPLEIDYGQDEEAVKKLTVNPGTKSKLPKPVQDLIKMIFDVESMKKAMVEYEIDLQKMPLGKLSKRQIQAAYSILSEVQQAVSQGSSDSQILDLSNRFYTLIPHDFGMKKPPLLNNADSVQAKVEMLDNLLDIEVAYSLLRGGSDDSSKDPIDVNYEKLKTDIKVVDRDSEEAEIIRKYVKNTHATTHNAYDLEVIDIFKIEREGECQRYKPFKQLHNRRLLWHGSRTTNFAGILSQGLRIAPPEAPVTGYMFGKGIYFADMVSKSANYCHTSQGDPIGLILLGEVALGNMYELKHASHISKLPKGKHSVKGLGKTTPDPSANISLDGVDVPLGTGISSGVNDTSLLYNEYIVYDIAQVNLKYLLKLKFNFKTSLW

These are yes or no findings as the source states them, for the method shown. Binding seen in cells or lysates may run through a third protein. Some results given as binding are weak or reduced against the parent protein; the word gives no strength. For some assays here: Tags and fused reporters may be left off the sequences shown.

In assay [1] the target is T1, GFP- or myc-tagged AIMP2 (UniProt Q13155).
T1 sequence: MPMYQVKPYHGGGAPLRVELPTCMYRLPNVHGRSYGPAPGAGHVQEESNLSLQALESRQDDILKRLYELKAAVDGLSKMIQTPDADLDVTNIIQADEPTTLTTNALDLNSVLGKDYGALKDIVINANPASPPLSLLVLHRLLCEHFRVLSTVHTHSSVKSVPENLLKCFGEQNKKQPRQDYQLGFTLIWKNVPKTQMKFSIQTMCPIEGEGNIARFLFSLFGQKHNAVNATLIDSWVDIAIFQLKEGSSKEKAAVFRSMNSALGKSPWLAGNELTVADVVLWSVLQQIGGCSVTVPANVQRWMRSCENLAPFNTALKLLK
Description: co-IP; GFP- or myc-tagged AIMP2 and/or DX2 plasmids transfected into cells; lysate immunoprecipitated with myc antibody.

For assay [2], the target named is GFP- or myc-tagged DX2 (UniProt Q13155). The assay is described as above.
Assay [3] deals with T1, GFP- or myc-tagged AIMP2. Description: co-IP; GFP- or myc-tagged AIMP2 and/or DX2 plasmids transfected into cells; lysate immunoprecipitated with GFP antibody (opposite direction).
Assay [4] addresses GFP- or myc-tagged DX2 (UniProt Q13155). The description is as above.
The target in the next assay is Flag-parkin (UniProt O60260). Description: co-IP; Hek293 co-transfected with Myc-AIMP2 or Myc-DX2 and Flag-parkin, harvested after 24 h; lysate (1% Triton X-100 in PBS) immunoprecipitated by flag antibody, protein A/G agarose, 4 °C.
Assay [5] concerns the target Poly(ADP-ribose) polymerase-1 (human (endogenous in SH-SY5Y)) (UniProt P09874). Kind of assay: co-IP; called PARP-1 pull-down assay; SH-SY5Y transfected with AIMP2 or DX2 plasmid; lysate precipitated with PARP-1 antibody, Western blot.
For assay [6], the target named is T2, GFP- or myc-tagged AIMP2, Q13155.
T2 chain: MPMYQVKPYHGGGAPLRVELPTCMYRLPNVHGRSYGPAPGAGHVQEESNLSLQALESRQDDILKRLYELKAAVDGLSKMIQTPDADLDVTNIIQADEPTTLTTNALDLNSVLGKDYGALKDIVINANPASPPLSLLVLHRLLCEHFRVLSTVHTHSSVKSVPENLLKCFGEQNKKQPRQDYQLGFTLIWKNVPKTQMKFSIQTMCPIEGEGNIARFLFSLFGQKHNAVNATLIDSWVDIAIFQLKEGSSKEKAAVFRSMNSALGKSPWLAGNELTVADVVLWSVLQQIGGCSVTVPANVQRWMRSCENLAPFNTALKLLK
Description: co-IP; GFP- or myc-tagged AIMP2 and/or DX2 plasmids transfected into cells; lysate immunoprecipitated with myc antibody. To be noted: remark: other sources report otherwise.

Assay [7] has the same target. Kind of assay: co-IP; GFP- or myc-tagged AIMP2 and/or DX2 plasmids transfected into cells; lysate immunoprecipitated with GFP antibody (opposite direction). To be noted: remark: other sources report otherwise.
In assay [8] the target is Poly(ADP-ribose) polymerase-1 (human (endogenous in SH-SY5Y)) (UniProt P09874). Description: co-IP; SH-SY5Y after DX2 overexpression, or 48 h after DX2 siRNA or control siRNA; total lysate, PARP-1 immunoprecipitated with protein agarose beads, AIMP2 by immunoblot.

B1: GFP- or myc-tagged DX2 (protein, UniProt Q13155-2 1-251)
chain: MPMYQVKPYHGGGAPLRVELPTCMYRLPNVHGRSYGPAPGAGHVQDYGALKDIVINANPASPPLSLLVLHRLLCEHFRVLSTVHTHSSVKSVPENLLKCFGEQNKKQPRQDYQLGFTLIWKNVPKTQMKFSIQTMCPIEGEGNIARFLFSLFGQKHNAVNATLIDSWVDIAIFQLKEGSSKEKAAVFRSMNSALGKSPWLAGNELTVADVVLWSVLQQIGGCSVTVPANVQRWMRSCENLAPFNTALKLLK
For the molecule B1, the binding result was “binds” with GFP- or myc-tagged AIMP2 [1], “binds weakly” in the assay with GFP- or myc-tagged DX2 [2], “binds” in the assay with GFP- or myc-tagged AIMP2 [3] and “binds weakly” with GFP- or myc-tagged DX2 [4].

B2: Myc-tagged DX2 (protein, UniProt Q13155-2 1-251)
chain: MPMYQVKPYHGGGAPLRVELPTCMYRLPNVHGRSYGPAPGAGHVQDYGALKDIVINANPASPPLSLLVLHRLLCEHFRVLSTVHTHSSVKSVPENLLKCFGEQNKKQPRQDYQLGFTLIWKNVPKTQMKFSIQTMCPIEGEGNIARFLFSLFGQKHNAVNATLIDSWVDIAIFQLKEGSSKEKAAVFRSMNSALGKSPWLAGNELTVADVVLWSVLQQIGGCSVTVPANVQRWMRSCENLAPFNTALKLLK
On to B2, for which, in the assay with Flag-parkin, the binding result is “binds”.

B3: DX2 (transfected in SH-SY5Y) (protein, UniProt Q13155-2 1-251)
chain: MPMYQVKPYHGGGAPLRVELPTCMYRLPNVHGRSYGPAPGAGHVQDYGALKDIVINANPASPPLSLLVLHRLLCEHFRVLSTVHTHSSVKSVPENLLKCFGEQNKKQPRQDYQLGFTLIWKNVPKTQMKFSIQTMCPIEGEGNIARFLFSLFGQKHNAVNATLIDSWVDIAIFQLKEGSSKEKAAVFRSMNSALGKSPWLAGNELTVADVVLWSVLQQIGGCSVTVPANVQRWMRSCENLAPFNTALKLLK
In the case of B3, the binding entry in [5] was “binds”.

B4: Myc-tagged AIMP2 (protein, UniProt Q13155 1-320)
chain: MPMYQVKPYHGGGAPLRVELPTCMYRLPNVHGRSYGPAPGAGHVQEESNLSLQALESRQDDILKRLYELKAAVDGLSKMIQTPDADLDVTNIIQADEPTTLTTNALDLNSVLGKDYGALKDIVINANPASPPLSLLVLHRLLCEHFRVLSTVHTHSSVKSVPENLLKCFGEQNKKQPRQDYQLGFTLIWKNVPKTQMKFSIQTMCPIEGEGNIARFLFSLFGQKHNAVNATLIDSWVDIAIFQLKEGSSKEKAAVFRSMNSALGKSPWLAGNELTVADVVLWSVLQQIGGCSVTVPANVQRWMRSCENLAPFNTALKLLK
As to B4, the binding entry with Flag-parkin was “binds”.

B5: AIMP2 (transfected in SH-SY5Y) (protein, UniProt Q13155 1-320)
chain: MPMYQVKPYHGGGAPLRVELPTCMYRLPNVHGRSYGPAPGAGHVQEESNLSLQALESRQDDILKRLYELKAAVDGLSKMIQTPDADLDVTNIIQADEPTTLTTNALDLNSVLGKDYGALKDIVINANPASPPLSLLVLHRLLCEHFRVLSTVHTHSSVKSVPENLLKCFGEQNKKQPRQDYQLGFTLIWKNVPKTQMKFSIQTMCPIEGEGNIARFLFSLFGQKHNAVNATLIDSWVDIAIFQLKEGSSKEKAAVFRSMNSALGKSPWLAGNELTVADVVLWSVLQQIGGCSVTVPANVQRWMRSCENLAPFNTALKLLK
Take B5: the binding entry in [5] is reported as “binds”.

B6: GFP- or myc-tagged AIMP2, Q13155 1-320 (protein)
chain: MPMYQVKPYHGGGAPLRVELPTCMYRLPNVHGRSYGPAPGAGHVQEESNLSLQALESRQDDILKRLYELKAAVDGLSKMIQTPDADLDVTNIIQADEPTTLTTNALDLNSVLGKDYGALKDIVINANPASPPLSLLVLHRLLCEHFRVLSTVHTHSSVKSVPENLLKCFGEQNKKQPRQDYQLGFTLIWKNVPKTQMKFSIQTMCPIEGEGNIARFLFSLFGQKHNAVNATLIDSWVDIAIFQLKEGSSKEKAAVFRSMNSALGKSPWLAGNELTVADVVLWSVLQQIGGCSVTVPANVQRWMRSCENLAPFNTALKLLK
For the molecule B6, the binding entry in [6] and in [7] was “binds” throughout.

B7: AIMP2 (in SH-SY5Y cells with DX2 overexpression or DX2 siRNA) (protein, UniProt Q13155 1-320)
chain: MPMYQVKPYHGGGAPLRVELPTCMYRLPNVHGRSYGPAPGAGHVQEESNLSLQALESRQDDILKRLYELKAAVDGLSKMIQTPDADLDVTNIIQADEPTTLTTNALDLNSVLGKDYGALKDIVINANPASPPLSLLVLHRLLCEHFRVLSTVHTHSSVKSVPENLLKCFGEQNKKQPRQDYQLGFTLIWKNVPKTQMKFSIQTMCPIEGEGNIARFLFSLFGQKHNAVNATLIDSWVDIAIFQLKEGSSKEKAAVFRSMNSALGKSPWLAGNELTVADVVLWSVLQQIGGCSVTVPANVQRWMRSCENLAPFNTALKLLK
B7: the binding result in [8] was “binds”.
